Assay results from the supplement of paper PMC8728848.
The other results are listed elsewhere or left out.

Experiments:
Experiment in all cases: glycan array binding signal (z-score within array); higher = stronger binding
Details in all cases: glycan notation: IUPAC condensed, linker removed
[1] = target: Fuc(a1-2)Gal
Outline: (§1)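 The Consortium for Functional Glycomics database supplied 3228 glycan arrays, of which those lacking an available protein sequence were dropped. The binding signal, a within-array Z-score, was averaged across arrays of the same protein sequence and across linkers. Negative scores can be read as non-binding.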

[2] = target: Fuc(a1-2)Gal(b1-3)GalNAc
Outline: as §1

[3] = target: Fuc(a1-2)Gal(b1-3)GalNAc(a1-3)[Fuc(a1-2)]Gal(b1-4)Glc
Outline: as §1

[4] = target: Fuc(a1-2)Gal(b1-3)GalNAc(a1-3)[Fuc(a1-2)]Gal(b1-4)GlcNAc
Outline: as §1

[5] = target: Fuc(a1-2)Gal(b1-3)GalNAc(b1-3)Gal
Outline: as §1

[6] = target: Fuc(a1-2)Gal(b1-3)GalNAc(b1-3)Gal(a1-4)Gal(b1-4)Glc
Outline: as §1

[7] = target: Fuc(a1-2)Gal(b1-3)GalNAc(b1-4)[Neu5Ac(a2-3)]Gal(b1-4)Glc
Outline: as §1

[8] = target: Fuc(a1-2)Gal(b1-3)GlcNAc
Outline: as §1

[9] = target: Fuc(a1-2)Gal(b1-3)GlcNAc(b1-2)Man(a1-3)[Fuc(a1-2)Gal(b1-3)GlcNAc(b1-2)Man(a1-6)]Man(b1-4)GlcNAc(b1-4)GlcNAc
Outline: as §1

[10] = target: Fuc(a1-2)Gal(b1-3)GlcNAc(b1-2)Man(a1-3)[Fuc(a1-2)Gal(b1-3)GlcNAc(b1-2)Man(a1-6)]Man(b1-4)GlcNAc(b1-4)[Fuc(a1-6)]GlcNAc
Outline: as §1

[11] = target: Fuc(a1-2)Gal(b1-3)GlcNAc(b1-3)Gal(b1-4)Glc
Outline: as §1

[12] = target: Fuc(a1-2)Gal(b1-3)GlcNAc(b1-3)GalNAc
Outline: as §1

[13] = target: Fuc(a1-2)Gal(b1-3)GlcNAc(b1-3)[Fuc(a1-2)Gal(b1-3)GlcNAc(b1-6)]GalNAc
Outline: as §1

[14] = target: Fuc(a1-2)Gal(b1-3)GlcNAc(b1-3)[Fuc(a1-3)[Gal(b1-4)]GlcNAc(b1-6)]Gal(b1-4)Glc
Outline: as §1

[15] = target: Fuc(a1-2)Gal(b1-3)GlcNAc(b1-3)[Gal(b1-4)GlcNAc(b1-6)]Gal(b1-4)Glc
Outline: as §1

[16] = target: Fuc(a1-2)Gal(b1-3)GlcNAc(b1-3)[Neu5Ac(a2-6)Gal(b1-4)GlcNAc(b1-6)]Gal(b1-4)Glc
Outline: as §1

[17] = target: Fuc(a1-2)Gal(b1-3)GlcNAc6S
Outline: as §1

[18] = target: Fuc(a1-2)Gal(b1-3)[Fuc(a1-4)]GlcNAc
Outline: as §1

[19] = target: Fuc(a1-2)Gal(b1-3)[Fuc(a1-4)]GlcNAc(b1-2)Man(a1-3)[Fuc(a1-2)Gal(b1-3)[Fuc(a1-4)]GlcNAc(b1-2)Man(a1-3)]Man(b1-4)GlcNAc(b1-4)GlcNAc
Outline: as §1

[20] = target: Fuc(a1-2)Gal(b1-3)[Fuc(a1-4)]GlcNAc(b1-2)Man(a1-3)[Fuc(a1-2)Gal(b1-3)[Fuc(a1-4)]GlcNAc(b1-2)Man(a1-6)]Man(b1-4)GlcNAc(b1-4)GlcNAc
Outline: as §1

[21] = target: Fuc(a1-2)Gal(b1-3)[Fuc(a1-4)]GlcNAc(b1-2)Man(a1-3)[Fuc(a1-2)Gal(b1-3)[Fuc(a1-4)]GlcNAc(b1-2)Man(a1-6)]Man(b1-4)GlcNAc(b1-4)[Fuc(a1-6)]GlcNAc(b1-4)[Fuc(a1-6)]GlcNAc
Outline: as §1

[22] = target: Fuc(a1-2)Gal(b1-3)[Fuc(a1-4)]GlcNAc(b1-2)Man(a1-6)[Fuc(a1-2)Gal(b1-3)[Fuc(a1-4)]GlcNAc(b1-2)Man(a1-3)]Man(b1-4)GlcNAc(b1-4)[Fuc(a1-6)]GlcNAc
Outline: as §1

B1: Gal 10 (Homo sapiens), Q05315 (protein)
chain: MSLLPVPYTEAASLSTGSTVTIKGRPLVCFLNEPYLQVDFHTEMKEESDIVFHFQVCFGRRVVMNSREYGAWKQQVESKNMPFQDGQEFELSISVLPDKYQVMVNGQSSYTFDHRIKPEAVKMVQVWRDISLTKFNVSYLKR
glycan array binding signal (z-score) [1]: 0.577 | glycan array binding signal (z-score) [2]: -0.814 | glycan array binding signal (z-score) [3]: -0.158 | glycan array binding signal (z-score) [4]: -0.772 | glycan array binding signal (z-score) [5]: -0.428 | glycan array binding signal (z-score) [6]: 0.433 | glycan array binding signal (z-score) [7]: 0.173 | glycan array binding signal (z-score) [8]: 0.29 | glycan array binding signal (z-score) [9]: 0.82 | glycan array binding signal (z-score) [10]: 0.638 | glycan array binding signal (z-score) [11]: -0.548 | glycan array binding signal (z-score) [12]: 0.589 | glycan array binding signal (z-score) [13]: -0.484 | glycan array binding signal (z-score) [14]: 0.274 | glycan array binding signal (z-score) [15]: -0.47 | glycan array binding signal (z-score) [16]: -0.098 | glycan array binding signal (z-score) [17]: 0.923 | glycan array binding signal (z-score) [18]: -1.46 | glycan array binding signal (z-score) [19]: 0.078 | glycan array binding signal (z-score) [20]: 0.861 | glycan array binding signal (z-score) [21]: 0.379 | glycan array binding signal (z-score) [22]: 0.81
